Measured values published in publication PMC3778836.
Where a chain is given by its changes, count along the chain named. These are yes or no findings as the source states them, for the method shown. In cells and extracts the contact can be indirect. Some results given as binding are weak or reduced against the parent protein; the word gives no strength. Sequences can lack the tags named with a protein. One block for each molecule: values may come before it.

Chains of the proteins cited; added tags and fusions are not shown.
UniProt Q13535: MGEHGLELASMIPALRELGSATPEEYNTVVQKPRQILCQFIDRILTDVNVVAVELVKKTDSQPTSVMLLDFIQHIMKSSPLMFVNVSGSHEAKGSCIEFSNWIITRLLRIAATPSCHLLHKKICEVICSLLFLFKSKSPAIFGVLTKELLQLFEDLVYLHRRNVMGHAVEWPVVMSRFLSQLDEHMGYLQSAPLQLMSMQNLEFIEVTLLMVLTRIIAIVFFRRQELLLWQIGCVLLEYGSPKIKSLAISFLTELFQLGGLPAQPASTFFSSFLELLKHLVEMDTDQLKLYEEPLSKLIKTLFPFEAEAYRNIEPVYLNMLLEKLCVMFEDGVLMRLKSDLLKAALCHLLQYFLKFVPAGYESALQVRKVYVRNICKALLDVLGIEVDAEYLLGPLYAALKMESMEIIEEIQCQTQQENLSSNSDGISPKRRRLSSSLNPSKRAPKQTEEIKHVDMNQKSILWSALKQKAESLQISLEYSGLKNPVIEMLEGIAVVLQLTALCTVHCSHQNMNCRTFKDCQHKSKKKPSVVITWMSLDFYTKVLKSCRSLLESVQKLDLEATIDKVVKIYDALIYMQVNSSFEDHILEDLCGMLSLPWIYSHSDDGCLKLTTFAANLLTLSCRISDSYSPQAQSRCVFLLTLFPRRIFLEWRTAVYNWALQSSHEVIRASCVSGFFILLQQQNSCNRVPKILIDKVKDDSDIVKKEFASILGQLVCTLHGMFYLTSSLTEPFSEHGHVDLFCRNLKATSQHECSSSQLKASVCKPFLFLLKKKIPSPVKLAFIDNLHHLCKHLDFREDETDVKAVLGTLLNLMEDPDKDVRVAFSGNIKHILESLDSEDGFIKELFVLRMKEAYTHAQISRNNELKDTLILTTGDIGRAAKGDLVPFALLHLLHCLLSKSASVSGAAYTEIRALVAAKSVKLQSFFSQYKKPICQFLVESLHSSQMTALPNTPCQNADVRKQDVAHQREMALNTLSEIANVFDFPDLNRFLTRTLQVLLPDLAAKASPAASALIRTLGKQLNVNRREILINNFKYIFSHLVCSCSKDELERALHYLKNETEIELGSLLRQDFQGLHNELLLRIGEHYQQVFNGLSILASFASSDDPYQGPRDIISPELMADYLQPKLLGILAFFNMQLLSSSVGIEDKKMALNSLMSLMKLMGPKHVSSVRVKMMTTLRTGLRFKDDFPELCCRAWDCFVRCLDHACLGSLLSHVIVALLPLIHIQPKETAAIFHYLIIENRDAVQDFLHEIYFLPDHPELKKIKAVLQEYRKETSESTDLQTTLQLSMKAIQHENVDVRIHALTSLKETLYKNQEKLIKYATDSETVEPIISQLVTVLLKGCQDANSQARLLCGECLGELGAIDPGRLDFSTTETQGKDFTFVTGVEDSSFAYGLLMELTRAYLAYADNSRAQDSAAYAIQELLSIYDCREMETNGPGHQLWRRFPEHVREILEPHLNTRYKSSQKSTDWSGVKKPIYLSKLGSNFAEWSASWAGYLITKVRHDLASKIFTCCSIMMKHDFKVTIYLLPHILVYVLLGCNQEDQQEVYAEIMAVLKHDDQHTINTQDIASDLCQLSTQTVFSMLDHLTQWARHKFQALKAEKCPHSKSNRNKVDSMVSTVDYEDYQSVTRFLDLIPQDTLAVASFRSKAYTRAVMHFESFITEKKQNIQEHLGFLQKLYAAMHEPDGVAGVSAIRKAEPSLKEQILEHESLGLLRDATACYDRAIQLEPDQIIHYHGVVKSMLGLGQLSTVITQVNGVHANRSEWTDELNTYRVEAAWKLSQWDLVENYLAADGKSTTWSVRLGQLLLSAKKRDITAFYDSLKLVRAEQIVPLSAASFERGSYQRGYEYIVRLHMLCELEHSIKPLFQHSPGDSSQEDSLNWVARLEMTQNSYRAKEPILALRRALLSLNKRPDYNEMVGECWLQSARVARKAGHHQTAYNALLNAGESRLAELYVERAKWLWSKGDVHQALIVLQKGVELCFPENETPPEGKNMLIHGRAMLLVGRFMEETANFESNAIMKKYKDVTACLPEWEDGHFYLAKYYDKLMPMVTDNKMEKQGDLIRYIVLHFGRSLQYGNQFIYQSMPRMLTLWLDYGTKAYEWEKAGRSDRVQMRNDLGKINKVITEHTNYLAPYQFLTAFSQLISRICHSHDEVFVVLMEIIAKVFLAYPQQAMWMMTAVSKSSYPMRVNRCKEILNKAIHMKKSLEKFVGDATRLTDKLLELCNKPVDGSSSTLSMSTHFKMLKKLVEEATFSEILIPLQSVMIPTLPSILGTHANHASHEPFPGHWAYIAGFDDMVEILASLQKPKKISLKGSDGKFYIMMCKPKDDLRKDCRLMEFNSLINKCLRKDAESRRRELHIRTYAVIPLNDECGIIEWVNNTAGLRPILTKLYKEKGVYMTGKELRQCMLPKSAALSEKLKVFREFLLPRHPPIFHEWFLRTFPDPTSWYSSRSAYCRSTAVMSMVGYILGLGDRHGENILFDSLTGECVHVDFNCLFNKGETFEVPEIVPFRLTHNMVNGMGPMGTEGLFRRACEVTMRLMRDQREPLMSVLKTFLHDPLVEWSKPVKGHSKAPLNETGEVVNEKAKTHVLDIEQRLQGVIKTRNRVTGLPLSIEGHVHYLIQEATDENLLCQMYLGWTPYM

Experiments:
[1] = target: T1, GFP-tagged HELQ (HEK293T) (human) (UniProt Q8TDG4); experiment: co-IP; HEK293T transiently co-transfected; sonicated whole-cell extract; anti-GFP agarose, 4 h, 4 °C, with or without 50 U/ml Benzonase; washes in 100 mM KCl buffer; immunoblotting
T1 sequence: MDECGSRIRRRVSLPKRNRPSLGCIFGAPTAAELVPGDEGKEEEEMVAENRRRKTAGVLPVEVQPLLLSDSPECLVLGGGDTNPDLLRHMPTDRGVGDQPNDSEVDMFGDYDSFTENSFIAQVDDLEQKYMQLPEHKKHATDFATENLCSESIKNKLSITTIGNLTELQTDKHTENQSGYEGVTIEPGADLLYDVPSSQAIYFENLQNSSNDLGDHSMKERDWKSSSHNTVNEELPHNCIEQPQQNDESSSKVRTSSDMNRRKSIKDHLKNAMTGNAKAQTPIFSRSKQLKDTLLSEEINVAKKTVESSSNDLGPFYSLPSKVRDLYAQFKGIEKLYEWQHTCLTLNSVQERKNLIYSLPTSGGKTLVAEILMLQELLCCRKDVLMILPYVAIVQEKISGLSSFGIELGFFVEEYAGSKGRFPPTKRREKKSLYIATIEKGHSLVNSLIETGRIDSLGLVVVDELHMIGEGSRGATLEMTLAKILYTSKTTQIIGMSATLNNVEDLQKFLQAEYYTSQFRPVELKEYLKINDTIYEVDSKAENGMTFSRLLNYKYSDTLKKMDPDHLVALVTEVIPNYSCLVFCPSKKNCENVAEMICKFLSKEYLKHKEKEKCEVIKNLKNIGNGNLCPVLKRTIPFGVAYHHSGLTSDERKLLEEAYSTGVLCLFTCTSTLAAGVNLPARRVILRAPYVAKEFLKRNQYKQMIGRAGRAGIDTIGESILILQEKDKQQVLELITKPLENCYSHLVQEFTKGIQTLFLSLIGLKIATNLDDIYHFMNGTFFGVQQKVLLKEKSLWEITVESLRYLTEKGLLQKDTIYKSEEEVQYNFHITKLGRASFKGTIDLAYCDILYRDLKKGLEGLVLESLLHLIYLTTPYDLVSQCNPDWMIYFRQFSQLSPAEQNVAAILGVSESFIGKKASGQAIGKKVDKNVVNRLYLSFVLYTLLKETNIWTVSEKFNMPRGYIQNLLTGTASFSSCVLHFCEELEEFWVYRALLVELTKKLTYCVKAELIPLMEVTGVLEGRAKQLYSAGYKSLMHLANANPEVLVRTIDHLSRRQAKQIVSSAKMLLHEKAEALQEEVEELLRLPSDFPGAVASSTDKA

HELQ K365M (human) = target: T2, HELQ K365M (human) (UniProt Q8TDG4); experiment: as above
T2 sequence: T1 sequence with K365M

[2] = target: T3, FLAG-HA epitope-tagged HELQ (human) (UniProt Q8TDG4); experiment: co-IP; FLAG-HA-tagged bait stably expressed in HeLa S3; sequential anti-FLAG and anti-HA immunoprecipitation from nuclear extract; immunoblotting with specific antibodies; for HELQ with or without MMC (100 ng/ml, 18 h) and with or without Benzonase (50 U/ml)
T3 sequence: T1 sequence

[3] = target: T4, FLAG-HA epitope-tagged XRCC2 (UniProt O43543); experiment: as above
T4 sequence: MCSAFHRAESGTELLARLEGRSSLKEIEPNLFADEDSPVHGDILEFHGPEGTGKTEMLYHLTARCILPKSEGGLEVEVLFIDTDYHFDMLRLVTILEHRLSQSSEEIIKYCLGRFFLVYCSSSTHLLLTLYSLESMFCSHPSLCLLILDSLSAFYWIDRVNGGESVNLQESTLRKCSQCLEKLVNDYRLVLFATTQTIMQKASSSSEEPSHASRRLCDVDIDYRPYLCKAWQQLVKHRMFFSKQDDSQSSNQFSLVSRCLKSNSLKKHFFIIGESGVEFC

binding [2]: binds
B2: RAD51C (protein, UniProt O43502 1-376)
chain: MRGKTFRFEMQRDLVSFPLSPAVRVKLVSAGFQTAEELLEVKPSELSKEVGISKAEALETLQIIRRECLTNKPRYAGTSESHKKCTALELLEQEHTQGFIITFCSALDDILGGGVPLMKTTEICGAPGVGKTQLCMQLAVDVQIPECFGGVAGEAVFIDTEGSFMVDRVVDLATACIQHLQLIAEKHKGEEHRKALEDFTLDNILSHIYYFRCRDYTELLAQVYLLPDFLSEHSKVRLVIVDGIAFPFRHDLDDLSLRTRLLNGLAQQMISLANNHRLAVILTNQMTTKIDRNQALLVPALGESWGHAATIRLIFHWDRKQRLATLYKSPSQKECTVLFQIKPQGFRDTVVTSACSLQTEGSLSTRKRSRDPEEEL

binding [2]: binds
B4: RAD51B (protein, UniProt O15315 1-384)
chain: MGSKKLKRVGLSQELCDRLSRHQILTCQDFLCLSPLELMKVTGLSYRGVHELLCMVSRACAPKMQTAYGIKAQRSADFSPAFLSTTLSALDEALHGGVACGSLTEITGPPGCGKTQFCIMMSILATLPTNMGGLEGAVVYIDTESAFSAERLVEIAESRFPRYFNTEEKLLLTSSKVHLYRELTCDEVLQRIESLEEEIISKGIKLVILDSVASVVRKEFDAQLQGNLKERNKFLAREASSLKYLAEEFSIPVILTNQITTHLSGALASQADLVSPADDLSLSEGTSGSSCVIAALGNTWSHSVNTRLILQYLDSERRQILIAKSPLAPFTSFVYTIKEEGLVLQETTFCSVTQAELNWAPEILPPQPPEQLGLQMCHHTQLIF

binding [2]: binds
B5: XRCC2 (endogenous, HeLa S3) (protein, UniProt O43543 1-280)
chain: T4 sequence

binding [1]: binds
B7: XRCC2 (endogenous, HEK293T) (protein, UniProt O43543 1-280)
chain: T4 sequence

The remaining lines, values behind:

Molecule: ATR (endogenous, HEK293T) (from UniProt Q13535 1-2644) (enzyme)
binding [1]: binds | binding (HELQ K365M (human)): binds

Molecule: ATR (endogenous, HeLa S3) (from UniProt Q13535 1-2644) (enzyme)
binding [2]: binds

B1: HELQ (endogenous, HeLa S3) (enzyme, UniProt Q8TDG4 1-1101)
chain: T1 sequence
binding [3]: binds

B3: DsRed-Monomer-tagged RAD51B (HEK293T) (protein, UniProt O15315 1-384)
chain: B4 chain
binding [1]: binds | binding (HELQ K365M (human)): binds

B6: Flag-tagged XRCC2 (HEK293T) (protein, UniProt O43543 1-280)
chain: T4 sequence
binding [1]: binds
